In publication doi:10.1101/2025.01.15.633301 one finds binding data, which are given here for one molecule.

These are yes or no findings as the source states them, for the method shown. In cells and extracts the contact can be indirect. Some entries that bind do so weakly or less than the wild type. Sequences can lack the tags named with a protein.

In the assay the target is myc-progerin (UniProt P02545). Briefly: co-IP.

B1: HA-SUN1 (protein, UniProt Q9D666 1-913)
chain: MDFSRLHTYTPPQCVPENTGYTYALSSSYSSDALDFETEHKLEPVFDSPRMSRRSLRLVTTASYSSGDSQAIDSHISTSRATPAKGRETRTVKQRRSASKPAFSINHLSGKGLSSSTSHDSSCSLRSATVLRHPVLDESLIREQTKVDHFWGLDDDGDLKGGNKAATQGNGELAAEVASSNGYTCRDCRMLSARTDALTAHSAIHGTTSRVYSRDRTLKPRGVSFYLDRTLWLAKSTSSSFASFIVQLFQVVLMKLNFETYKLKGYESRAYESQSYETKSHESEAHLGHCGRMTAGELSRVDGESLCDDCKGKKHLEIHTATHSQLPQPHRVAGAMGRLCIYTGDLLVQALRRTRAAGWSVAEAVWSVLWLAVSAPGKAASGTFWWLGSGWYQFVTLISWLNVFLLTRCLRNICKVFVLLLPLLLLLGAGVSLWGQGNFFSLLPVLNWTAMQPTQRVDDSKGMHRPGPLPPSPPPKVDHKASQWPQESDMGQKVASLSAQCHNHDERLAELTVLLQKLQIRVDQVDDGREGLSLWVKNVVGQHLQEMGTIEPPDAKTDFMTFHHDHEVRLSNLEDVLRKLTEKSEAIQKELEETKLKAGSRDEEQPLLDRVQHLELELNLLKSQLSDWQHLKTSCEQAGARIQETVQLMFSEDQQGGSLEWLLEKLSSRFVSKDELQVLLHDLELKLLQNITHHITVTGQAPTSEAIVSAVNQAGISGITEAQAHIIVNNALKLYSQDKTGMVDFALESGGGSILSTRCSETYETKTALLSLFGVPLWYFSQSPRVVIQPDIYPGNCWAFKGSQGYLVVRLSMKIYPTTFTMEHIPKTLSPTGNISSAPKDFAVYGLETEYQEEGQPLGRFTYDQEGDSLQMFHTLERPDQAFQIVELRVLSNWGHPEYTCLYRFRVHGEPIQ
With B1, the binding entry is given as “binds”.
